PubChem BioAssay AID504791 – Drosophila RNAi Screening Center – 2011
Purpose: 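Genes of the fly required for silencing by miRNA, siRNA or endo-siRNA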 (primary screen). Cells: Drosophila S2-derived reporter cells. Reagents: long dsRNA against Drosophila genes, about 150-250 ng dsRNA per well (siRNA assay); about 80-120 ng (miRNA assay). Time to read-out: about 5 days (siRNA assay); about 4 days (miRNA assay). Treatment: copper sulfate induction of reporters: 25 µM (siRNA assay); 200 mM stated (miRNA assay), 1-2 days before reading. Measured: 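Dual luciferase assay: Renilla to firefly signal ratio in each well, scaled to the mean ratio of its plate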. Active means: 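First-pass picks had plate-scaled ratios over 1.5 for the siRNA assay, over 1.6 for the miRNA assay, or under 0.6; two distinct dsRNAs had to score alike on retest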.
The screen tested about 23,000 reagents; shown is an unselected part of those that have a named target and a result. Over the whole deposit, 199 (0.86%) got an active call. 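Plate-scaled ratios behind the calls are not deposited; printed light signals are raw; many rows marked increased or decreased are still called inactive.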 The record does not give: the direction of the score.

The first 2 records, ahead of the listing:
Dph2 (Diphthamide biosynthesis 2) [DRSC16222]: stable assay Renilla, run 1 (luminescence) = 7252; stable assay firefly, run 1 (luminescence) = 4.20e5; Call = inactive
CG7518 [DRSC16253]: stable assay Renilla, run 1 (luminescence) = 6063; stable assay firefly, run 1 (luminescence) = 3.98e5; Call = inactive

The list itself, from the first entry:
Dph2 (Diphthamide biosynthesis 2) [DRSC16222]: stable assay Renilla, run 1 (luminescence) = 7252; stable assay firefly, run 1 (luminescence) = 4.20e5; Call = inactive
CG7518 [DRSC16253]: stable assay Renilla, run 1 (luminescence) = 6063; stable assay firefly, run 1 (luminescence) = 3.98e5; Call = inactive
HSPBAP1 (HSPB1 associated protein 1) [DRSC14567]: stable assay Renilla, run 1 (luminescence) = 6419; stable assay firefly, run 1 (luminescence) = 4.34e5; Call = inactive
pug (pugilist) [DRSC17036]: stable assay Renilla, run 1 (luminescence) = 5747; stable assay firefly, run 1 (luminescence) = 3.65e5; Call = inactive
CG34168 [DRSC01938]: stable assay Renilla, run 1 (luminescence) = 6470; stable assay firefly, run 1 (luminescence) = 5.16e5; Call = inactive
Paics (PAICS bifunctional enzyme) [DRSC20305]: stable assay Renilla, run 1 (luminescence) = 8644; stable assay firefly, run 1 (luminescence) = 5.48e5; Call = inactive
SNF4Agamma (SNF4/AMP-activated protein kinase gamma subunit) [DRSC13461]: stable assay Renilla, run 1 (luminescence) = 2651; stable assay firefly, run 1 (luminescence) = 3.57e5; Call = inactive
SNF4Agamma (SNF4/AMP-activated protein kinase gamma subunit) [DRSC13463]: stable assay Renilla, run 1 (luminescence) = 3423; stable assay firefly, run 1 (luminescence) = 3.61e5; Call = inactive
SNF4Agamma (SNF4/AMP-activated protein kinase gamma subunit) [DRSC15879]: stable assay Renilla, run 1 (luminescence) = 8332; stable assay firefly, run 1 (luminescence) = 5.01e5; Call = inactive
SNF4Agamma (SNF4/AMP-activated protein kinase gamma subunit) [DRSC16847]: stable assay Renilla, run 1 (luminescence) = 11307; stable assay firefly, run 1 (luminescence) = 2.96e5; Call = inactive
rumi [DRSC15177]: stable siRNA reporter change = reporter ratio raised past the hit cutoff; stable assay Renilla, run 1 (luminescence) = 9233; stable assay firefly, run 1 (luminescence) = 2.40e5; Call = inactive
CG32161 [DRSC22128]: stable assay Renilla, run 1 (luminescence) = 9806; stable assay firefly, run 1 (luminescence) = 7.69e5; Call = inactive
Muc12Ea (Mucin 12Ea) [DRSC19937]: stable assay Renilla, run 1 (luminescence) = 6035; stable assay firefly, run 1 (luminescence) = 5.51e5; Call = inactive
2mit [DRSC14194]: stable assay Renilla, run 1 (luminescence) = 7258; stable assay firefly, run 1 (luminescence) = 4.64e5; Call = inactive
2mit [DRSC15224]: stable assay Renilla, run 1 (luminescence) = 7039; stable assay firefly, run 1 (luminescence) = 4.54e5; Call = inactive
Tlk (Tousled-like kinase) [DRSC17731]: stable siRNA reporter change = reporter ratio lowered past the hit cutoff; miRNA reporter change = reporter ratio lowered past the hit cutoff; stable assay Renilla, run 1 (luminescence) = 3227; stable assay firefly, run 1 (luminescence) = 4.25e5; Call = inactive
Tlk (Tousled-like kinase) [DRSC17835]: stable assay Renilla, run 1 (luminescence) = 4187; stable assay firefly, run 1 (luminescence) = 2.96e5; Call = inactive
Tlk (Tousled-like kinase) [DRSC22924]: stable assay Renilla, run 1 (luminescence) = 3448; stable assay firefly, run 1 (luminescence) = 3.55e5; Call = inactive
Tlk (Tousled-like kinase) [DRSC22926]: miRNA reporter change = reporter ratio lowered past the hit cutoff; stable assay Renilla, run 1 (luminescence) = 3136; stable assay firefly, run 1 (luminescence) = 3.46e5; Call = active
Tlk (Tousled-like kinase) [DRSC22938]: stable assay Renilla, run 1 (luminescence) = 4140; stable assay firefly, run 1 (luminescence) = 3.70e5; Call = inactive
Tlk (Tousled-like kinase) [DRSC23163]: stable assay Renilla, run 1 (luminescence) = 1320; stable assay firefly, run 1 (luminescence) = 79384; Call = inactive
